No constants are given. Whether binding was seen depends on the method and setting. Tags and fused reporters may be left off the sequences shown.
Target: T1, HISTONE …9 fused with the DNA-binding domain of GAL4 (Arabidopsis thaliana), Q8H0W2
T1 chain: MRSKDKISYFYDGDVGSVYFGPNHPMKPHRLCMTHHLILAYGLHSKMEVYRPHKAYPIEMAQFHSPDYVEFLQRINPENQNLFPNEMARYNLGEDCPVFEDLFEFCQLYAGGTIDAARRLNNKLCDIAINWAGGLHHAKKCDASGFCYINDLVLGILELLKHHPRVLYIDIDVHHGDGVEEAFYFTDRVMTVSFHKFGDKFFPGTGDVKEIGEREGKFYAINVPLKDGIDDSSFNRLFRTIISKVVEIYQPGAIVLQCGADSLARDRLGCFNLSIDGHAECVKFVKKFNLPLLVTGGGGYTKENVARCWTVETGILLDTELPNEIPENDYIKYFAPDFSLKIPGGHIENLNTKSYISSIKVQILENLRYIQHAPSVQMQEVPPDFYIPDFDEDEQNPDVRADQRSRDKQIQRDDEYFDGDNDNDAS
Test: two-hybrid; ProQuest Two-Hybrid System (pDEST22, pDEST32); growth on synthetic complete medium lacking leucine, tryptophan and histidine with 20 mM 3-amino-1,2-4-triazole
Conditions: remark: other sources report otherwise

binding: no binding
B1: HIGH EXPRESSION OF OSMOTICALLY RESPONSIVE GENES15 fused with the activation domain of GAL4, Q9FN19 1-613 (protein)
chain: MSSLTSVELNFLVFRYLQESGFTHAAFTLGYEAGINKSNIDGNMVPPGALIKFVQKGLQYMEMEANLSNSEVDIDEDFSFFQPLDLISKDVKELQDMLREKKRKERDMEKERDRSKENDKGVEREHEGDRNRAKEKDRHEKQKEREREREKLEREKEREREKIEREKEREREKMEREIFEREKDRLKLEKEREIEREREREKIEREKSHEKQLGDADREMVIDQTDKEIAGDGSTGAEPMDIVMTPTSQTSHIPNSDVRILEGHTSEVCACAWSPSASLLASGSGDATARIWSIPEGSFKAVHTGRNINALILKHAKGKSNEKSKDVTTLDWNGEGTLLATGSCDGQARIWTLNGELISTLSKHKGPIFSLKWNKKGDYLLTGSVDRTAVVWDVKAEEWKQQFEFHSGPTLDVDWRNNVSFATSSTDSMIYLCKIGETRPAKTFTGHQGEVNCVKWDPTGSLLASCSDDSTAKIWNIKQSTFVHDLREHTKEIYTIRWSPTGPGTNNPNKQLTLASASFDSTVKLWDAELGKMLCSFNGHREPVYSLAFSPNGEYIASGSLDKSIHIWSIKEGKIVKTYTGNGGIFEVCWNKEGNKIAACFADNSVCVLDFRM

From PMC5943563
